Experimental findings from article doi:10.1101/483123 are described below.

No constants are given. Whether binding was seen depends on the method and setting. A result given as binding can be weak or reduced; the word gives no strength. For part of these data: In cells and extracts the contact can be indirect.

In test [1] the target is T18 fusion to the PorM periplasmic domain (Porphyromonas gingivalis ATCC33277) (UniProt B2RLE8). Briefly: two-hybrid.
Test [2] has as its target FLAG-tagged PorM periplasmic domain, exported to the periplasm (Porphyromonas gingivalis ATCC33277) (UniProt B2RLE8). Briefly: co-IP.
Test [3] has as its target full-length FLAG-tagged PorM (Porphyromonas gingivalis ATCC33277) (UniProt B2RLE8). The test is described as follows: co-IP.
Test [4] concerns the target full-length FLAG-tagged PorN (Porphyromonas gingivalis ATCC33277) (UniProt B2RLE7). Briefly: co-IP.

Take “T25-PorU CTD (C-terminal domain of the PorU attachment complex protein) (from UniProt B2RGP6) (domain or fragment)”: the binding entry in test [1] is on record as “binds”.

Regarding “T25-PpaD CTD (C-terminal domain of the PpaD peptidyl-arginine deiminase) (from UniProt Q9RQJ2) (domain or fragment)”, the binding result in test [1] is “binds”.

With “T25-RgpB CTD (C-terminal domain of the RgpB arginine-specific cysteine proteinase) (from UniProt B2RKU0 661-736) (domain or fragment)”, the binding result in test [1] is listed as “binds”.

For “periplasmically-targeted VSV-G-tagged RgpB CTD (from UniProt B2RKU0 661-736) (domain or fragment)”, the binding entry in test [2], in test [3] and in test [4] was “binds” each time.
